Results reported in the supplement of paper PMC11732987, “Enantioselective OTUD7B fragment discovery through chemoproteomics screening and high-throughput optimisation” (Communications Chemistry, 2025).
Some of the results follow. The data scatter; read single values as rough.

Sequences of proteins named here, by UniProt entry; tags and fusion partners are left off. A change or cut given only in a name is not applied to a line headed by its entry. Residues count along the entry.
UniProt Q96QR8: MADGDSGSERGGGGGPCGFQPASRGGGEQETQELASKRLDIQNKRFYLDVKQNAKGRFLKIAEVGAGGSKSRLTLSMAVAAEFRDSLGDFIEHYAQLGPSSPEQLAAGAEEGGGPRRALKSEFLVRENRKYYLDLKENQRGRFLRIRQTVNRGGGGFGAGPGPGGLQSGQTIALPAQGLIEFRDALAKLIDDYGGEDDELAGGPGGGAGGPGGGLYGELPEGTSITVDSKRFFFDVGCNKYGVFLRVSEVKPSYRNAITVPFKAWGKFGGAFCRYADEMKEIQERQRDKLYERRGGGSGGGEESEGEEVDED
UniProt Q9Y520, 878-902: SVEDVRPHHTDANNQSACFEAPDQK
UniProt P07602: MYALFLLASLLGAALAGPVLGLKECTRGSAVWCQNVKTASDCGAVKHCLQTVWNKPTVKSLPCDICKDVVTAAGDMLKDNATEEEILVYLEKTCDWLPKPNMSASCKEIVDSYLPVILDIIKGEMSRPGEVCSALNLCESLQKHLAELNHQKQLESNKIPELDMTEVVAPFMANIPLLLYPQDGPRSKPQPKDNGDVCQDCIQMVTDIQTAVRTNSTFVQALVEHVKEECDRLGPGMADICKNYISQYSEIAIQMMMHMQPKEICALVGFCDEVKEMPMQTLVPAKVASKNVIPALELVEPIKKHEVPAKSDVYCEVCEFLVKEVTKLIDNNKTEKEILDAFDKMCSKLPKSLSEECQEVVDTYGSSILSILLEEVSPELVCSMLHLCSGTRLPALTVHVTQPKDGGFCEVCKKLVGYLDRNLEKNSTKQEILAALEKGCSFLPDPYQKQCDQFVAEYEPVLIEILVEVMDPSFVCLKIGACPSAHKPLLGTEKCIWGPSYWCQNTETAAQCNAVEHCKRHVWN
UniProt Q92696: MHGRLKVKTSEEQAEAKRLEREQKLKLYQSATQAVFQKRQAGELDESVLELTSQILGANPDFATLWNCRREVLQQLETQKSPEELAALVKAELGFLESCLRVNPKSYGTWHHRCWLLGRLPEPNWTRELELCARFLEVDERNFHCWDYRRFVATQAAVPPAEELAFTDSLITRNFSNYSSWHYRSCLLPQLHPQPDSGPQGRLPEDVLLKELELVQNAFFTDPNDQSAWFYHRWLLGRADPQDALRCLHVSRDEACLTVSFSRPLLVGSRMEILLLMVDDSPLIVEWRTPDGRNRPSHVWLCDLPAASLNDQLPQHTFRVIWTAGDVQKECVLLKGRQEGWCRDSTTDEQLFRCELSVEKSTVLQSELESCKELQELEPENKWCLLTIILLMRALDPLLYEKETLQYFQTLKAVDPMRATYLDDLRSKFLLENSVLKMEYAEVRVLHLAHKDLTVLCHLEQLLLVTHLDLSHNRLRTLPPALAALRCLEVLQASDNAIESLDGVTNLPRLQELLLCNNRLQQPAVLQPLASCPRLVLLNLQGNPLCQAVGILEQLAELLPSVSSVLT
UniProt Q53H96: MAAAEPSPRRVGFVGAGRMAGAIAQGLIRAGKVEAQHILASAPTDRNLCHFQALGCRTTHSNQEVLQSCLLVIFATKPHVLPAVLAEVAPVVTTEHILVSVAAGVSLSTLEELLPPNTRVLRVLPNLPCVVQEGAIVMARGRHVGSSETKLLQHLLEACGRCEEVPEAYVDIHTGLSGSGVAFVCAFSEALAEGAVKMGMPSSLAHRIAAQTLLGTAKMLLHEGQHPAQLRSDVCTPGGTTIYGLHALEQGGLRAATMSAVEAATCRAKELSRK
UniProt Q96N64: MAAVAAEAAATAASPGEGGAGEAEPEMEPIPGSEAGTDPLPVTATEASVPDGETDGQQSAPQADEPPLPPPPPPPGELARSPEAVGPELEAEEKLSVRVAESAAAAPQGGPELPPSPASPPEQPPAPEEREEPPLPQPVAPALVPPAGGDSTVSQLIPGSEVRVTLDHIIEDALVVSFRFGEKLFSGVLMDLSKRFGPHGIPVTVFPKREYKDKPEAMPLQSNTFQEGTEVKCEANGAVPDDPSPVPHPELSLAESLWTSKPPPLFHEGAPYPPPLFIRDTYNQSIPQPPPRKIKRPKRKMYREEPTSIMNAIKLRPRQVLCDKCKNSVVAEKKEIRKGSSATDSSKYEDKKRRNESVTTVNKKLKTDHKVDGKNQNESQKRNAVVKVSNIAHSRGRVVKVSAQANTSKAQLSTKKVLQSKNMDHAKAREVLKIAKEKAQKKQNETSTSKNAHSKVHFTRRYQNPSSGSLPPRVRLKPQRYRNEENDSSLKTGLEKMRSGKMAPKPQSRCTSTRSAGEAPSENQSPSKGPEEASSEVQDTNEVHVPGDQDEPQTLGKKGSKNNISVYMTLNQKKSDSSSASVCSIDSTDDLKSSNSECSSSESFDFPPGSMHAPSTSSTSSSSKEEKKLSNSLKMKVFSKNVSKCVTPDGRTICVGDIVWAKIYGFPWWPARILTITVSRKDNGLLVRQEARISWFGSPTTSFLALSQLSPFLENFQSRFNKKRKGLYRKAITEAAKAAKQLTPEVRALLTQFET
UniProt Q9H974: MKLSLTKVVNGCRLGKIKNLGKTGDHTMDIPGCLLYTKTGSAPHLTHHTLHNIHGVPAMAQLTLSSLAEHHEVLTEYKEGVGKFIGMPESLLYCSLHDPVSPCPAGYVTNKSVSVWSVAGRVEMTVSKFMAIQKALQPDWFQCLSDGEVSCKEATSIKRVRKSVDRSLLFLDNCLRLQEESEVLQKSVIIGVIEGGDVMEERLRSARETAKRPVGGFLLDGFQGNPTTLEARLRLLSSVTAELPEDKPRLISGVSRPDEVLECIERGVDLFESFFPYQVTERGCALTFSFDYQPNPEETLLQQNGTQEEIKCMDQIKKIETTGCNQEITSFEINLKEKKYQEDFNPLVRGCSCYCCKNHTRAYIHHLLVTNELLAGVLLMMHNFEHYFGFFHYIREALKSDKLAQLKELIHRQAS
UniProt Q96B01: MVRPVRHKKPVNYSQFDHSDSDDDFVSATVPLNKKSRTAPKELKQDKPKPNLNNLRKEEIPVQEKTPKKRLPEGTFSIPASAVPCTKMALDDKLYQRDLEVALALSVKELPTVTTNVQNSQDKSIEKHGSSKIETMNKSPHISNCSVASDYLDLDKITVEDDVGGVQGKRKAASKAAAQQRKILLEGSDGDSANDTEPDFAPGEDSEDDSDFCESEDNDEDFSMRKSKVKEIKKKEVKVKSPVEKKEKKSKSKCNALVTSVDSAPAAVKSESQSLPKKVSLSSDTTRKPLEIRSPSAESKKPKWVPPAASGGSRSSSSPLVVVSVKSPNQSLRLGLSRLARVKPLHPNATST
UniProt Q15185: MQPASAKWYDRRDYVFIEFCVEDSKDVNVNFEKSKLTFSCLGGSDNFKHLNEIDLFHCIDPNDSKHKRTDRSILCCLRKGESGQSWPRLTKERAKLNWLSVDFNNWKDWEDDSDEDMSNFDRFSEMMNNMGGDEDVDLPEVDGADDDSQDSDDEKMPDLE
UniProt Q06609: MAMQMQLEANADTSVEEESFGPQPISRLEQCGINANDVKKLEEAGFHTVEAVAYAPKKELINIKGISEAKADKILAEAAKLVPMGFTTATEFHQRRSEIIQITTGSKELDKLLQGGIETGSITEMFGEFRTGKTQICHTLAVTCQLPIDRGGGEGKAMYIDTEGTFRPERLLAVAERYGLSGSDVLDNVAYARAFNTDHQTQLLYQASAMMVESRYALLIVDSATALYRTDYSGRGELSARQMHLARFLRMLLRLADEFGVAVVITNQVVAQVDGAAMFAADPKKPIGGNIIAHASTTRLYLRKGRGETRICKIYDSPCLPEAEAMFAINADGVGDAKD
UniProt Q9H2M9: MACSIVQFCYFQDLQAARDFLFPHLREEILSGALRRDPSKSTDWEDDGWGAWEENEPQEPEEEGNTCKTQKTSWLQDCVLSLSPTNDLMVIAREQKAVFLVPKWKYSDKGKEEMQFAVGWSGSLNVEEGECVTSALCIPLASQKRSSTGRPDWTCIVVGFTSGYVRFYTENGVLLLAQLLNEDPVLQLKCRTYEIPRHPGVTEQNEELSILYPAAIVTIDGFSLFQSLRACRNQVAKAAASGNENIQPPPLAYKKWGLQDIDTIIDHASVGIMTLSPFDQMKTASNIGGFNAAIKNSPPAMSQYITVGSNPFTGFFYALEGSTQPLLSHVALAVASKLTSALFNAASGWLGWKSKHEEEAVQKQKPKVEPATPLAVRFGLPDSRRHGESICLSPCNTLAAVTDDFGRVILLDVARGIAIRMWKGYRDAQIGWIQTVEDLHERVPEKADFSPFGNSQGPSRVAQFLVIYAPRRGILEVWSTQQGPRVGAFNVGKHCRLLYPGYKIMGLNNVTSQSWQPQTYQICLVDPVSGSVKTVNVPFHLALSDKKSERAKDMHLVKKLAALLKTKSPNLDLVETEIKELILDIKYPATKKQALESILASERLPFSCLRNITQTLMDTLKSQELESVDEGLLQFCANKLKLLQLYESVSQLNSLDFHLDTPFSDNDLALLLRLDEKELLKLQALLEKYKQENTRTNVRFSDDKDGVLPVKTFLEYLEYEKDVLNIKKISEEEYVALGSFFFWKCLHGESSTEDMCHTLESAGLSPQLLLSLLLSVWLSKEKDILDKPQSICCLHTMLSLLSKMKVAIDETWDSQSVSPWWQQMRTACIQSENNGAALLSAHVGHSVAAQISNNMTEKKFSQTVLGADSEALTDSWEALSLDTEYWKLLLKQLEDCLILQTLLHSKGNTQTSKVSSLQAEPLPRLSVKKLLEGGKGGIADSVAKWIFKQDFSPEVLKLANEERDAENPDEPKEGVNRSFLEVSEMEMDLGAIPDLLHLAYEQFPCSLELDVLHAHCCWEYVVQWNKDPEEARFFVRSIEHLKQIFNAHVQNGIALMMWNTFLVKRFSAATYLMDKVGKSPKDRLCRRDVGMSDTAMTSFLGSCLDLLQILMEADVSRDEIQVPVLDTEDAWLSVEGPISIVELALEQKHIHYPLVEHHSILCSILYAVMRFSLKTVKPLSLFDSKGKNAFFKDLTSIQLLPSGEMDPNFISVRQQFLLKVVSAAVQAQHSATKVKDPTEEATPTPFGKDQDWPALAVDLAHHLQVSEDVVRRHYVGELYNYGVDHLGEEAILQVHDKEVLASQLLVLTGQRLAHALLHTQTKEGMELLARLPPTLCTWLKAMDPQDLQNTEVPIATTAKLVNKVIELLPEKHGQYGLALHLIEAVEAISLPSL
UniProt O60671, 134-155: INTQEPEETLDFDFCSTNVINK
UniProt Q12974: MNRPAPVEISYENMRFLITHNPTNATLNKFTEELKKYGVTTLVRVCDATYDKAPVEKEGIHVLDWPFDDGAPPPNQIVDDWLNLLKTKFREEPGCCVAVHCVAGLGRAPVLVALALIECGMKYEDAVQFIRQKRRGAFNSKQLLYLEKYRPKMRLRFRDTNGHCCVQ

Assays:
[1] = compound: ClCC(=O)N[C@@H]1CCCc2ccccc12; assay: log2 mean competition ratio of IA-DTB cysteine labelling (DMSO/compound) (log2 ratio); higher = stronger cysteine engagement by compound; details: treatment time: 4 h, cell line lysate: HEK293T
Method: (§1)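 IA-DTB competitive cysteine chemoproteomics in HEK293T RIPA lysate. Lysates were treated with compound 29 or 30 at 50 or 200 µM for 4 h, then IA-DTB (500 µM, 1 h), trypsin-digested, NeutrAvidin-enriched and analysed by diaPASEF. Competition ratio = intensity DMSO / intensity compound (n=4 treated, n=64 DMSO); binding: mean log2 CR ≥ 1 and p ≤ 0.05 plus QC filters. Target is the cysteine site.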

[2] = compound: ClCC(=O)N[C@H]1CCCc2ccccc12; assay: as above; details: treatment time: 4 h, cell line lysate: HEK293T
Method: as §1

Row | Target | log2 mean competition ratio ([1]; 50 µM) | log2 mean competition ratio ([1]; 200 µM) | log2 mean competition ratio ([2]; 50 µM) | log2 mean competition ratio ([2]; 200 µM)
1 | PURB C273 (UniProt Q96QR8) | 0.109 | 0.267 | -0.104 | 0.264
2 | PSME3IP1 C187 | -0.209 | 0.531 | -0.206 | 0.375
3 | PRRC2C C2340 (UniProt Q9Y520) | -0.165 | 0.157 | 0.129 | 0.287
4 | PURB C17 (UniProt Q96QR8) | 0.0252 | -0.191 | -0.0564 | -0.0269
5 | PSAP C33 (UniProt P07602) | 0.387 | 0.315 | 0.61 | 0.461
6 | RABGGTA C532 (UniProt Q92696) | -0.243 | 0.0781 | 0.48 | 0.264
7 | RAB39A C149 | -0.193 | -0.144 | 0.263 | 0.0968
8 | PYCR3 C266 (UniProt Q53H96) | 0.212 | 0.238 | -0.18 | 0.235
9 | PRRC2B C525 | 0.243 | -0.0718 | 0.173 | -0.122
10 | PWWP2A C654 (UniProt Q96N64) | 0.497 | 0.0719 | -0.106 | -0.329
11 | QTRT2 C324 (UniProt Q9H974) | 0.131 | 0.139 | 0.0988 | 0.0137
12 | RAD51AP1 C254 (UniProt Q96B01) | 0.0157 | -0.049 | 0.29 | 0.0686
13 | PRRC2B C246 | -0.216 | -0.273 | 0.0381 | -0.334
14 | PTGES3 C40 (UniProt Q15185) | 0.464 | 0.166 | 0.119 | 0.11
15 | RAD51 C31 (UniProt Q06609) | -0.242 | 0.187 | -0.37 | 0.105
16 | PRR5 C318 | 0.253 | -0.138 | 0.0485 | 0.123
17 | RAB3GAP2 C636 (UniProt Q9H2M9) | -0.289 | 0.23 | -0.45 | 0.0633
18 | PRRC2C C895 (UniProt Q9Y520) | -0.467 | 0.521 | -0.401 | 0.258
19 | RAD54L2 C471 (UniProt Q9Y4B4) | 0.118 | 0.28 | -0.0421 | 0.0704
20 | PSMD4 C37 | 0.0739 | -0.121 | -0.247 | -0.175
21 | RAD1 C148 (UniProt O60671) | 0.111 | 0.266 | 0.0171 | -0.196
22 | PTPN13 C588 (UniProt Q12923) | -0.0631 | -0.141 | -0.174 | 0.0434
23 | RAB39A C185 | -0.188 | 0.19 | -0.106 | -0.107
24 | PTP4A2 C46 (UniProt Q12974) | 0.2 | -0.000641 | 0.0854 | -0.0308

Single entries from the entries so far.
In log2 mean competition ratio ([2]; 50 µM), PRRC2B C246 has the entry 0.0381
In log2 mean competition ratio ([2]; 50 µM), PTGES3 C40 (UniProt Q15185) has the entry 0.119
